Assay results reported in publication PMC7969956.
These are yes or no findings as the source states them, for the method shown. In cells and extracts the contact can be indirect. Some binding calls cover weakened binding; strength is not graded here.

Sequences of proteins named here, by UniProt entry; tags and fusion partners are left off. Residues count along the entry.
UniProt O14763, residues 56-440: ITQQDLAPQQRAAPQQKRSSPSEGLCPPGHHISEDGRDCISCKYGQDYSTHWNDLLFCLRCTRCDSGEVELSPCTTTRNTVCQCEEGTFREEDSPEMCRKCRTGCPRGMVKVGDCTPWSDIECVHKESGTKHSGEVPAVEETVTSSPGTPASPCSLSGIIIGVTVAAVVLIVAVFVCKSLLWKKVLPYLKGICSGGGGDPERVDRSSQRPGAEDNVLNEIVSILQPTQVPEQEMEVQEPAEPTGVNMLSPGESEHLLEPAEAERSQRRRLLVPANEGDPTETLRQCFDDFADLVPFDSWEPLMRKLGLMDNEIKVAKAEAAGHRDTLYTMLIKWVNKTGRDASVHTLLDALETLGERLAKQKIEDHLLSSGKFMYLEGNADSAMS
UniProt Q13158: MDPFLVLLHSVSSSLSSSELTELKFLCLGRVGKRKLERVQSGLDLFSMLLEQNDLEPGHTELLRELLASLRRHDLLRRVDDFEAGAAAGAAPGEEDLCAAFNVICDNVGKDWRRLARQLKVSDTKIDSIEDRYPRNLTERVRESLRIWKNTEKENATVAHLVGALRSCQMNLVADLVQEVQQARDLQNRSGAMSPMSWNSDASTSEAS
UniProt Q14790: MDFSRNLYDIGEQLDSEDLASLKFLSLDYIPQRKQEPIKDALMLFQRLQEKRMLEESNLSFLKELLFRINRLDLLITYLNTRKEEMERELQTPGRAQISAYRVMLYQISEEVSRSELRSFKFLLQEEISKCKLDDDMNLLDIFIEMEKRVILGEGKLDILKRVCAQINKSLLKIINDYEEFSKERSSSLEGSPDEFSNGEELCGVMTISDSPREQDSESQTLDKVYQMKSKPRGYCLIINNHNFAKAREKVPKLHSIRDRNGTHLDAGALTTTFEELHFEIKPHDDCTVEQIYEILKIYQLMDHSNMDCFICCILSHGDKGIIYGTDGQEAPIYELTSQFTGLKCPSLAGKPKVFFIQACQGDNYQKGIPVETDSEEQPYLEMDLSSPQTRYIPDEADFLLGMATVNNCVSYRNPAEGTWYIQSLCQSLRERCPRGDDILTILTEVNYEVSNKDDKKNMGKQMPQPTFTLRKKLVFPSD

How the values were obtained:
[1] = target: TRAIL Death Receptor 5 (DR5) (human (endogenous in A549)) (UniProt O14763); test: co-IP; anti-DR5 immunoprecipitation from lysates of A549 cells transiently overexpressing myc-Hsp70, treated with vehicle (DMSO) or with 50 uM apigenin for 18 h then 100 ng/ml TRAIL for 6 h; blots as in Fig. 5a
[2] = target: TRAIL Death Receptor 5 (DR5) (human (endogenous in A549)) (UniProt O14763); test: co-IP; anti-DR5 immunoprecipitation from lysates of A549 cells without apigenin (DMSO, or 100 ng/ml TRAIL for 6 h); NP-40 buffer with 20 mM Tris-Cl, 150 mM NaCl, 1% NP-40, 10% glycerol; blots with anti-Hsp70, anti-caspase-8, anti-FADD and anti-DR5
[3] = target: TRAIL Death Receptor 5 (DR5) (human (endogenous in A549)) (UniProt O14763); test: co-IP; anti-DR5 immunoprecipitation from lysates of A549 cells pretreated with 50 uM apigenin for 18 h, then 25 or 100 ng/ml TRAIL or DMSO for 6 h; NP-40 buffer with 20 mM Tris-Cl, 150 mM NaCl, 1% NP-40, 10% glycerol; blots with anti-Hsp70, anti-caspase-8, anti-FADD and anti-DR5

| Substance | binding [1] | binding [2] | binding [3] |
| --- | --- | --- | --- |
| Fas-Associated Death Domain (FADD) (from UniProt Q13158 1-208) | binds | binds weakly | binds |
| caspase-8 (from UniProt Q14790 1-479) (enzyme) | – | binds weakly | – |
